Assay: general procedure: Fmoc solid-phase peptide synthesis; Rink Amide ChemMatrix resin (loading 0.50 mmol/g); HCTU/DIEA
Details: whole synthesis, UPLC-UV
[1] = one disulfide bridge, sequence written open

Row | Substance | final HPLC purity [1] [%] | final HPLC purity [%]
1 | (CGKKWWGWKC)KL-NH2 | 96.53 | –
2 | C8- CGRRWGWWRC RL-NH2 | – | 95.04
3 | C8- (CGKKWWGWKC)KL-NH2 | 96.32 | –
4 | C10 -(CGKKPGGWKC)KL-NH2 | 91.51 | –
5 | (CGKKPWWWKC)KL-NH2 | 95.79 | –
6 | C8- (CGRRWGWWRC)RL-NH2 | 94.15 | –
7 | C8 -(CGKKPGGWKC)KL-NH2 | 92.83 | –
8 | (CGKKPGGWKC)KL-NH2 | 100.00 | –
9 | C8- CGKKPGGWKC KL-NH2 | – | 99.16
10 | (CGRRPWWWRC)RL-NH2 | 95.61 | –
11 | C12- (CGKKWWGWKC)KL-NH2 | 95.32 | –
12 | (CGKKWGWWKC)KL-NH2 | 96.43 | –
13 | C12- CGKKWWGWKC KL-NH2 | – | 96.38
14 | C8- CGKKWWGWKC KL-NH2 | – | 98.04
15 | (CGRRWWGWRC)RL-NH2 | 95.74 | –
16 | C10- (CGRRWGWWRC)RL-NH2 | 93.65 | –
17 | C12- CGKKPGGWKC KL-NH2 | – | 96.01
18 | C12- CGRRWGWWRC RL-NH2 | – | 95.16
19 | C12- (CGRRWGWWRC)RL-NH2 | 92.52 | –
20 | C10- CGKKPGGWKC KL-NH2 | – | 95.87
21 | C10- CGRRWGWWRC RL-NH2 | – | 95.53
22 | C10- CGKKWWGWKC KL-NH2 | – | 96.40
23 | C12 -(CGKKPGGWKC)KL-NH2 | 93.36 | –
24 | C10- (CGKKWWGWKC)KL-NH2 | 91.79 | –
25 | (CGRRWGWWRC)RL-NH2 | 90.59 | –
